In the assay the target is T1, IND-BD (UniProt O81313).
T1 sequence: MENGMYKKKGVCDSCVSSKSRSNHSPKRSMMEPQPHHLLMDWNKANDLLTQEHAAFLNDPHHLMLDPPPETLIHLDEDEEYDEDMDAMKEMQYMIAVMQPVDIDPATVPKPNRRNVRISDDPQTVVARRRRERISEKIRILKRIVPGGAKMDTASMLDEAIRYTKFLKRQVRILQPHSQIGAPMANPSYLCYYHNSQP
The assay can be described thus: two-hybrid; pGADT7 (prey) and pGBKT7 (bait) fusions in yeast strain AH109; selective medium lacking Leu, Trp, His and Ade.

These are yes or no findings as the source states them, for the method shown. Some entries that bind do so weakly or less than the wild type. Sequences can lack the tags named with a protein.

B1: SPT-AD (protein, UniProt Q9FUA4 1-373)
chain: MISQREEREEKKQRVMGDKKLISSSSSSSVYDTRINHHLHHPPSSSDEISQFLRHIFDRSSPLPSYYSPATTTTTASLIGVHGSGDPHADNSRSLVSHHPPSDSVLMSKRVGDFSEVLIGGGSGSAAACFGFSGGGNNNNVQGNSSGTRVSSSSVGASGNETDEYDCESEEGGEAVVDEAPSSKSGPSSRSSSKRCRAAEVHNLSEKRRRSRINEKMKALQSLIPNSNKTDKASMLDEAIEYLKQLQLQVQMLTMRNGINLHPLCLPGTTLHPLQLSQIRPPEATNDPLLNHTNQFASTSNAPEMINTVASSYALEPSIRSHFGPFPLLTSPVEMSREGGLTHPRLNIGHSNANITGEQALFDGQPDLKDRIT
On to B1, for which the binding result is listed as “binds”.

Values taken from article PMC7025597.
